Values of other authors as cited in patent US7605257B2, “Processes for preparing water-soluble polyethylene glycol conjugates of macrolide immunosuppressants” (Wyeth, priority 2006, dated 2009).

SMILES | solubility in water
CO[C@H]1C[C@@H]2CC[C@@H](C)[C@@](O)(O2)C(=O)C(=O)N2CCCC[C@H]2C(=O)O[C@H]([C@H](C)C[C@@H]2CC[C@@H](O)[C@H](OC)C2)CC(=O)[C@H](C)/C=C(\C)[C@@H](O)[C@@H](OC)C(=O)[C@H](C)C[C@H](C)/C=C/C=C/C=C/1C [Rapamycin, rapamycin] | about 2.6 μg/mL
C=CC[C@@H]1/C=C(\C)C[C@H](C)C[C@H](OC)[C@H]2O[C@@](O)(C(=O)C(=O)N3CCCC[C@H]3C(=O)O[C@H](/C(C)=C/[C@@H]3CC[C@@H](O)[C@H](OC)C3)[C@H](C)[C@@H](O)CC1=O)[C@H](C)C[C@@H]2OC.O [tacrolimus] | 12 µg/mL
